According to the supplement of paper PMC10849652:
Some of the results follow.

Chains of the proteins cited; added tags and fusions are not shown. Lines headed by an entry give the natural chain unless they say otherwise; changes in a name come on top.
UniProt Q9H8Y5: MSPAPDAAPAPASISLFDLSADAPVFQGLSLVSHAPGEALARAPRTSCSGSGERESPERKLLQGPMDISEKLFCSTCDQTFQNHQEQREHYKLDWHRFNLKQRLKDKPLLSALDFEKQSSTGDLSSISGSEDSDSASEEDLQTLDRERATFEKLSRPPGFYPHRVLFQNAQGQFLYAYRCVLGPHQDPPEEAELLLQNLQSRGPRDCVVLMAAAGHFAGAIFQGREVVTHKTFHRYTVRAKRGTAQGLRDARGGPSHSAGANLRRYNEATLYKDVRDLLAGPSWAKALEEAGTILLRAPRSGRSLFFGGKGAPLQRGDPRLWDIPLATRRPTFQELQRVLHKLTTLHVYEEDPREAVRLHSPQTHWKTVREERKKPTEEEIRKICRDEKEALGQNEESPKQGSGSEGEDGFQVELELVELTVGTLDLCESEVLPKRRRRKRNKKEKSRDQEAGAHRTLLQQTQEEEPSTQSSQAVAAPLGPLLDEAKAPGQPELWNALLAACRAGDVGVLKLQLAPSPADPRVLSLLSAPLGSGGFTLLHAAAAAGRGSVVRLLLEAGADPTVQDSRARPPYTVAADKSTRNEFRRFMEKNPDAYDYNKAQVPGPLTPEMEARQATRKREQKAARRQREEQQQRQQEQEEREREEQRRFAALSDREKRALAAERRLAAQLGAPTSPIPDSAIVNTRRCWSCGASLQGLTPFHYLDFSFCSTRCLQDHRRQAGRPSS
UniProt P30837: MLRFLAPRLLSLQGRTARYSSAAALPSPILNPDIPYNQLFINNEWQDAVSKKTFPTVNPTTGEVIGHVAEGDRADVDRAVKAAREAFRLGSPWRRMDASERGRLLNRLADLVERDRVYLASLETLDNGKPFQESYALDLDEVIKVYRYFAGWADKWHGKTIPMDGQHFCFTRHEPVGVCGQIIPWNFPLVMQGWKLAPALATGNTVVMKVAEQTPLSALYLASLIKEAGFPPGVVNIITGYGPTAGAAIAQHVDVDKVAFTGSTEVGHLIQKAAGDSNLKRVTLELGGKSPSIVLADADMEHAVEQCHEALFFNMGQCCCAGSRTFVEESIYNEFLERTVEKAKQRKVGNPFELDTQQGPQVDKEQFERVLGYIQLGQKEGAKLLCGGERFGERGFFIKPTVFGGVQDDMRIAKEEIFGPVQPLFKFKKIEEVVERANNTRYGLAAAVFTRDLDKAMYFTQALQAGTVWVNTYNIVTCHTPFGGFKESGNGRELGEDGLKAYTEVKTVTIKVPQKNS
UniProt Q96CW1: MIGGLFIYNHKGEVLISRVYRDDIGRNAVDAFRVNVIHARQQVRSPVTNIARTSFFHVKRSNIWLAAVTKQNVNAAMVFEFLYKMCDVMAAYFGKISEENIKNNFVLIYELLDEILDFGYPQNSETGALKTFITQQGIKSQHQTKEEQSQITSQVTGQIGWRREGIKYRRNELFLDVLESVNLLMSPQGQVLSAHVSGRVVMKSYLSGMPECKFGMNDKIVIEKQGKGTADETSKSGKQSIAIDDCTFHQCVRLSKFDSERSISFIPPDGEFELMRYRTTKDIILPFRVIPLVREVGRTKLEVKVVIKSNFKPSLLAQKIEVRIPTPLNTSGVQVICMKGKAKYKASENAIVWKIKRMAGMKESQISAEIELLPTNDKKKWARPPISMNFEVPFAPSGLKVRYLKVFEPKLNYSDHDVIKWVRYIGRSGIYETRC
UniProt Q01432: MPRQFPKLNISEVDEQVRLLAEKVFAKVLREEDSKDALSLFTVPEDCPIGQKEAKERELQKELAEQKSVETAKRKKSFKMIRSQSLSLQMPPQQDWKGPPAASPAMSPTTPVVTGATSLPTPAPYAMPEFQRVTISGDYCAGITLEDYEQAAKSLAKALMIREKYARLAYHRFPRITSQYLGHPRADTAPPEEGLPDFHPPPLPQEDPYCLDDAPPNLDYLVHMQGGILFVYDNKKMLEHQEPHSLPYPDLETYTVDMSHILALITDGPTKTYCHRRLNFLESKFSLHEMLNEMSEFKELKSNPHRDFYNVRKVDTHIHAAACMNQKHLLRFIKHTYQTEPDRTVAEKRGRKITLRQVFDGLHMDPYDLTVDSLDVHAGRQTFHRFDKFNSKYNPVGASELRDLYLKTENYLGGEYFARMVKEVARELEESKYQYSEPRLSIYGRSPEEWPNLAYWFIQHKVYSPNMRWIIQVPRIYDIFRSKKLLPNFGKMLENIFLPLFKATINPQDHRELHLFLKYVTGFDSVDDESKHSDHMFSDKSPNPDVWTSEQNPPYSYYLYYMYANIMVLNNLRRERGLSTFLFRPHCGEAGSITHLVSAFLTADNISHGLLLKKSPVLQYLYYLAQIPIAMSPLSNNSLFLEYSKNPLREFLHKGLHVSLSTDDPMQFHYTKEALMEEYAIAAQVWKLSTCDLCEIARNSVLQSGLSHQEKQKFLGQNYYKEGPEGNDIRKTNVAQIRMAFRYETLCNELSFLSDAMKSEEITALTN
UniProt Q92572: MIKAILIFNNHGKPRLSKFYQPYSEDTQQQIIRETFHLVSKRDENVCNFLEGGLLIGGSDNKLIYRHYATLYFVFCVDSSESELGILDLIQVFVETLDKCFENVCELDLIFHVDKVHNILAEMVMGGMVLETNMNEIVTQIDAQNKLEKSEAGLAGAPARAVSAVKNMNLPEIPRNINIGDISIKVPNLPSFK
UniProt Q8IWZ3: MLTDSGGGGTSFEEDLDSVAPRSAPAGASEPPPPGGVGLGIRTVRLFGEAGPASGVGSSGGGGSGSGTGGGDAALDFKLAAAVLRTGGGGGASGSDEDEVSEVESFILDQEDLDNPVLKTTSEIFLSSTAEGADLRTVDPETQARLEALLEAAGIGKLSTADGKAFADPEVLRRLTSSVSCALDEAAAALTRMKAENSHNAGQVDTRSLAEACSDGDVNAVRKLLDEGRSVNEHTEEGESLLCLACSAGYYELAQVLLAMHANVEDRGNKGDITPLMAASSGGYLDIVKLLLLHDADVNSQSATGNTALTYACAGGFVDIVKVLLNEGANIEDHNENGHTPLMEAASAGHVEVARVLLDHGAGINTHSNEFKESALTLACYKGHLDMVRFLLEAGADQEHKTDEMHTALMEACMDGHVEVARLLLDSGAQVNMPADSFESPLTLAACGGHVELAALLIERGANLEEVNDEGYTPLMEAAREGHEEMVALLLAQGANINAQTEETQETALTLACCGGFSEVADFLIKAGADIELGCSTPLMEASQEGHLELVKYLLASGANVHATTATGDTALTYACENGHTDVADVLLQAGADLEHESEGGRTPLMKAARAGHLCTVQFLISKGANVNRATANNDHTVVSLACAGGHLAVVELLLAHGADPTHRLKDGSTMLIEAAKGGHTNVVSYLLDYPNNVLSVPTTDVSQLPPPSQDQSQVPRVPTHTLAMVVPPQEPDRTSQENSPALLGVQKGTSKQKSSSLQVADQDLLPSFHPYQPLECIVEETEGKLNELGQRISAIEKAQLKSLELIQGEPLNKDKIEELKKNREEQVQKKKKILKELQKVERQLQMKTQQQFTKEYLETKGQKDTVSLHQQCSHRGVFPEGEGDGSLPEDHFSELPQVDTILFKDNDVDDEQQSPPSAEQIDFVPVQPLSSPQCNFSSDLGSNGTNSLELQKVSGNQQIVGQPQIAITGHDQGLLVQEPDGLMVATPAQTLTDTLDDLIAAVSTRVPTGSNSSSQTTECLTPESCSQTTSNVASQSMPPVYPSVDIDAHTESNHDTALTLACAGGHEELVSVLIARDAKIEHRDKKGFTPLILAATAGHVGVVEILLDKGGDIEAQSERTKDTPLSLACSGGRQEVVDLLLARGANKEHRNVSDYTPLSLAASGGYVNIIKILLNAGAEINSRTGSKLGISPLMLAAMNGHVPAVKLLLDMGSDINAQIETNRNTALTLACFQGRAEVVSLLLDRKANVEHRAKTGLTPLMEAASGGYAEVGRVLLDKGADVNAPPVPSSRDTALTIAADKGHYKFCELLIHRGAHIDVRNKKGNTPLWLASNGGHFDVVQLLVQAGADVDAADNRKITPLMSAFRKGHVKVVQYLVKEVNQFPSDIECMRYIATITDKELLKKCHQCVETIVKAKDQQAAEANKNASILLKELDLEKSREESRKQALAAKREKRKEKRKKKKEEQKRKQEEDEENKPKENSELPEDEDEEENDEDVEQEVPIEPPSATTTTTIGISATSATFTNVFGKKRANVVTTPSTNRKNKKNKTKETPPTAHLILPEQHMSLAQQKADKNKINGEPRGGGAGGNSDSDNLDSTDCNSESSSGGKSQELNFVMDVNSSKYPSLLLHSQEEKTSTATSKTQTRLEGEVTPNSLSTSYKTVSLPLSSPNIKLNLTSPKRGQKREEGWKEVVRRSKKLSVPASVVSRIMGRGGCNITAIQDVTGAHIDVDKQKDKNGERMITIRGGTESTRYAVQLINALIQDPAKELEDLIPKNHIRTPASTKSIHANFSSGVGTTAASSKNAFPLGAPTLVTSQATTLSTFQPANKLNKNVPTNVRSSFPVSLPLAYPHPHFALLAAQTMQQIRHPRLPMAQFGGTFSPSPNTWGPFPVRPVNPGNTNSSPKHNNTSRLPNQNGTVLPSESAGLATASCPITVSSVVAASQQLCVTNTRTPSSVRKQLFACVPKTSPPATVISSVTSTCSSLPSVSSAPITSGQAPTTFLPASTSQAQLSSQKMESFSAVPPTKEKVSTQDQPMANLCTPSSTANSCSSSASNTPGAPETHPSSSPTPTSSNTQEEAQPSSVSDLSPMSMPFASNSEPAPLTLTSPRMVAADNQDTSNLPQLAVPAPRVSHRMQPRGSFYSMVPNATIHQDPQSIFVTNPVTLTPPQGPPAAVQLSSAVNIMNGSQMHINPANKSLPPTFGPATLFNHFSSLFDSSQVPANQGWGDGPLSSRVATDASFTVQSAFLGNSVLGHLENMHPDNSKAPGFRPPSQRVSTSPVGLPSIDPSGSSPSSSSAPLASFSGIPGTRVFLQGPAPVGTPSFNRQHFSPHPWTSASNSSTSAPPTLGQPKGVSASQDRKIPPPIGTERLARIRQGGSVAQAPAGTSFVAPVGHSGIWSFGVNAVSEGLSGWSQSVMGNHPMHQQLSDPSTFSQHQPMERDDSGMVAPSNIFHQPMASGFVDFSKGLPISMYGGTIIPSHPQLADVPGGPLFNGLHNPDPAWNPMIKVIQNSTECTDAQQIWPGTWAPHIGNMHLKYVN
UniProt Q9NQW6: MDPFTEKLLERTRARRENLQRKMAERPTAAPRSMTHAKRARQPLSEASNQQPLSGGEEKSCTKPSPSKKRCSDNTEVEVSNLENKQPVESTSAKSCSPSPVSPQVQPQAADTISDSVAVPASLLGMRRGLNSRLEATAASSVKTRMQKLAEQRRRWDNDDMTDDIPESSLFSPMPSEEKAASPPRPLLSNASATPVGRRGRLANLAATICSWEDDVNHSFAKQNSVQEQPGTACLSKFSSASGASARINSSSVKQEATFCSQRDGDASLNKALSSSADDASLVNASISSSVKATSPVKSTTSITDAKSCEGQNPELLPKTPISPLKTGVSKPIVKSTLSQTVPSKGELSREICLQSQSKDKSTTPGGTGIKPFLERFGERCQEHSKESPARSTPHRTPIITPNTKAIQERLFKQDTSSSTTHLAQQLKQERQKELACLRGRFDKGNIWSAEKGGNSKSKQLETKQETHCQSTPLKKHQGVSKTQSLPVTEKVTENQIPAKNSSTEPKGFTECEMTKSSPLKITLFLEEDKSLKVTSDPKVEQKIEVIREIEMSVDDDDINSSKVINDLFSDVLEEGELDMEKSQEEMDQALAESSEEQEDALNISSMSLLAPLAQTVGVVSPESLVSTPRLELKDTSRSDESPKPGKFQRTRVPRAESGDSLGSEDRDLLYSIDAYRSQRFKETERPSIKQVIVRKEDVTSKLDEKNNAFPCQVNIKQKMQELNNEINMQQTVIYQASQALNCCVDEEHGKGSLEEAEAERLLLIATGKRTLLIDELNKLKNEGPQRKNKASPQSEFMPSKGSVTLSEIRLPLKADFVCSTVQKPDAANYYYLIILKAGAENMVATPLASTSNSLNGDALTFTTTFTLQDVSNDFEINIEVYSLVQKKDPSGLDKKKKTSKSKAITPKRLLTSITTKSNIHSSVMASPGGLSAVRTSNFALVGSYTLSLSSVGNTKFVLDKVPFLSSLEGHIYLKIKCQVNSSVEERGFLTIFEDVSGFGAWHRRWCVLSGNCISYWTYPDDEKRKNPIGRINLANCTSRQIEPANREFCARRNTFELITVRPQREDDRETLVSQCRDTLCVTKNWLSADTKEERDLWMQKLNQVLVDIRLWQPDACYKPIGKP

Tests used:
Assay in all cases: log2 fold change, soluble protein after heating vs DMSO (PISA); higher = thermal stabilisation; K562 lysate, 10 uM; active = over 0.2 and 3.5 SD of the protein, either way, in both replicates (recomputed)
[1] = compound: C1=CC=C(C=C1)[C@H](COC2=CC3=C(C=C2)NC(=O)N3)NC(=O)C4=CC=CN(C4=O)CC5=CC(=C(C=C5)F)F
Procedure, shortened: (§1)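 To prepare the extract, K562 pellets were dounce-homogenised in PBS pH 7.4 with 1 mM MgCl2, giving crude material at 1 mg/mL protein. This was treated with 10 μM compound for 30 min, then heated in aliquots for 3 min over 48°C-58°C before pooling and addition of NP-40 to 0.5% at 4°C. Centrifugation at 21,000xg for 90 min left soluble protein in the supernatant, which TMTpro 16plex LC-MS/MS quantified with equalised channel sums. Results are log-two fold changes in thermal stability compared with solvent controls, from duplicates.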

[2] = compound: CC1=C(SC2=C1C(=N[C@H](C3=NN=C(N32)C)CC(=O)N)C4=CC=C(C=C4)Cl)C
Procedure, shortened: as §1

[3] = compound: CC1=C2C(=CC=C1)N=C(N(C2=O)C3=CC=CC=C3C)CN4C=NC5=C(N=CN=C54)N
Procedure, shortened: as §1

[4] = compound: Cc1sc2c(c1C)C(c1ccc(Cl)cc1)=N[C@@H](CC(=O)OC(C)(C)C)c1nnc(C)n1-2
Procedure, shortened: as §1

[5] = compound: c1ccc([C@@H]2C[C@H]2NC2CCNCC2)cc1
Procedure, shortened: as §1

Measured: log2 fold change

ANKZF1 (UniProt Q9H8Y5)
inactive: [1] 0.101 | [2] -0.026 | [3] 0.015 | [4] 0.017 | [5] 0.009

ANKRD17 (UniProt O75179)
inactive: [1] -0.037 | [2] -0.005 | [3] 0.028 | [4] 0.022 | [5] -0.014

ANP32A (UniProt P39687)
inactive: [1] 0.007 | [2] 0.02 | [3] 0 | [4] 0.07 | [5] -0.033

ALDH1B1 (UniProt P30837)
inactive: [1] 0.143 | [2] -0.021 | [3] 0.006 | [4] 0.049 | [5] 0.019

AP2M1 (UniProt Q96CW1)
inactive: [1] -0.004 | [2] -0.009 | [3] 0 | [4] -0.006 | [5] -0.011

ALG8 (UniProt Q9BVK2)
inactive: [1] 0.034 | [2] 0.001 | [3] 0.059 | [4] -0.013 | [5] -0.008

ALYREF (UniProt Q86V81)
inactive: [1] -0.022 | [2] -0.001 | [3] -0.04 | [4] -0.048 | [5] 0.079

ANPEP (UniProt P15144)
inactive: [1] 0.017 | [2] 0.02 | [3] -0.04 | [4] -0.045 | [5] -0.106

Reprinted from the listing (4 entries):
ANP32A (UniProt P39687)
inactive: [1] 0.007 | [2] 0.02 | [3] 0 | [4] 0.07 | [5] -0.033

ALDH1B1 (UniProt P30837)
inactive: [1] 0.143 | [2] -0.021 | [3] 0.006 | [4] 0.049 | [5] 0.019

AP2M1 (UniProt Q96CW1)
inactive: [1] -0.004 | [2] -0.009 | [3] 0 | [4] -0.006 | [5] -0.011

ALG8 (UniProt Q9BVK2)
inactive: [1] 0.034 | [2] 0.001 | [3] 0.059 | [4] -0.013 | [5] -0.008

Carrying on:

AMPD3 isoform 4 (UniProt Q01432)
inactive: [1] 0.02 | [2] -0.021 | [3] -0.012 | [4] 0.018 | [5] 0.093

AP3S1 (UniProt Q92572)
inactive: [1] -0.013 | [2] -0.037 | [3] -0.072 | [4] 0.016 | [5] -0.001

ANXA5 (UniProt P08758)
inactive: [1] 0.031 | [2] 0.016 | [3] 0.013 | [4] 0.033 | [5] 0.075

ALKBH5 (UniProt Q6P6C2)
inactive: [1] -0.001 | [2] 0.001 | [3] 0.04 | [4] 0.06 | [5] -0.08

AKT1S1 isoform 3 (UniProt Q96B36)
inactive: [1] 0 | [2] 0.027 | [3] 0.062 | [4] 0.009 | [5] -0.054

AMOTL1 (UniProt Q8IY63)
inactive: [1] -0.087 | [2] 0.018 | [3] -0.099 | [4] 0.16 | [5] 0.101

ANKS1A (UniProt Q92625)
inactive: [1] -0.022 | [2] -0.005 | [3] 0.011 | [4] 0.016 | [5] -0.055

ALDOC (UniProt P09972)
inactive: [1] 0.063 | [2] -0.012 | [3] -0.021 | [4] 0.015 | [5] -0.031

ANO6 (UniProt Q4KMQ2)
inactive: [1] 0.006 | [2] 0.023 | [3] -0.035 | [4] -0.02 | [5] -0.012

ANKHD1 isoform 6 (UniProt Q8IWZ3)
inactive: [1] -0.048 | [2] -0.006 | [3] 0.019 | [4] 0.023 | [5] -0.097

AP3B1 (UniProt O00203)
inactive: [1] 0.031 | [2] 0.006 | [3] -0.006 | [4] 0.048 | [5] 0.035

ALDH16A1 (UniProt Q8IZ83)
inactive: [1] 0.015 | [2] -0.029 | [3] 0.007 | [4] 0.018 | [5] -0.072

ALMS1 (UniProt Q8TCU4)
inactive: [1] -0.038 | [2] -0.004 | [3] 0.025 | [4] -0.033 | [5] -0.008

AKT2 (UniProt P31751)
inactive: [1] 0.011 | [2] 0.003 | [3] 0.031 | [4] 0.02 | [5] 0.028

ALAD (UniProt P13716)
inactive: [1] 0.043 | [2] -0.016 | [3] 0.024 | [4] -0.042 | [5] -0.028

ANLN (UniProt Q9NQW6)
inactive: [1] 0.04 | [2] -0.014 | [3] 0.053 | [4] 0.015 | [5] 0.005
